# The other results are listed elsewhere or left out. Shown are side measurements of this screen, not its main read-out; they come without a call. Compounds called inactive in the main read-out are mostly missing here. The note in brackets gives the kind of curve behind each potency; many fits are weak.
# Assay: qHTS Assay to Find Inhibitors of Chronic Active B-Cell Receptor Signaling
# Conditions: ABC-DLBCL IkBa-CBG/CBR reporter, luminescence ratio (green luciferase fused to IkBa over red control in TMD8 lymphoma cells), 4 h
# Summary of the method: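 TMD8 human ABC-DLBCL cells with doxycycline-inducible IκBα–green luciferase fusion and unfused red luciferase, in 0.5% FBS medium; compounds up to 46 uM, 4 h at 37C. Green/red luminescence ratio, filter-overlap corrected, fitted to concentration-response curves.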
# [1] = measured here: CBR red luminescence, cell number
# [2] = measured here: IkBa-CBG green luminescence
SMILES,AC50 [1],AC50 [2]
N#Cc1ccc(C(=O)NCC(c2ccco2)N2CCCC2)cc1 (stereo not given),"0.1 µM [rising, full curve, poor fit]",–
CCOc1cccc(C(=O)Nc2ccc3oc(Cc4ccc(Cl)cc4)nc3c2)c1,"18.4 µM [falling, single point]","25.9 µM [rising, partial curve, poor fit]"
O=C(CSc1nnc(NC2CC2)s1)NN1C(=O)NC2(CCCCC2)C1=O,"16.4 µM [rising, single point]",–
Cc1ccc(Cn2ncc(Cl)c(Cl)c2=O)cc1,"11.6 µM [falling, partial curve]",–
C=CCNc1nc2ccccc2nc1NS(=O)(=O)c1cccc(C)c1,"15.8 µM [falling, partial curve, poor fit]",–
COC(=O)C(O)(CC(=O)Nc1ccccc1OC)C(F)(F)F (stereo not given),"13 µM [falling, partial curve, poor fit]",–
OCCCc1nc2n(n1)C(c1ccccc1)C=C(c1ccccc1)N2 (stereo not given),"14.6 µM [rising, partial curve, poor fit]",–
CCOC(=O)N1CCC(Nc2ncnc3c2cnn3-c2ccc(C)cc2C)CC1,"20.6 µM [falling, single point]",–
CC1CCCC(C)N1C(=O)COC(=O)C1CCN(S(=O)(=O)c2c(Cl)cccc2Cl)CC1 (stereo not given),"0.731 µM [rising, partial curve, poor fit]",–
COc1ccc(-c2nc(NC(=O)C3CCN(c4nc5ccccc5o4)CC3)sc2C)cc1,"10 µM [falling, partial curve]",–
COc1ccccc1NC(=O)CSc1nnc(COc2ccccc2C)o1,"2.51 µM [rising, full curve, poor fit]",–
O=C(Nc1ccc(Br)cc1)c1ccco1,"0.731 µM [rising, partial curve, poor fit]",–
CC1CCCC(NCC(O)COC(c2ccc(F)cc2)c2ccc(F)cc2)C1C (stereo not given),"11.2 µM [falling, partial curve]",–
Cc1ccc(-c2cc(C(F)(F)F)c(C#N)c(SCC(=O)O)n2)cc1,"3.98 µM [falling, full curve, poor fit]",–
CCCn1c(-c2ccncc2)n[nH]c1=S,"5.62 µM [rising, single point]",–
C/C(=C\c1cccc(Br)c1)C(=O)c1c(C)cc(C)[nH]c1=O,"2.51 µM [falling, partial curve, poor fit]",–
CC1CCc2c(C(=O)NCCCN3CCOCC3)csc2C1 (stereo not given),"2.82 µM [falling, partial curve, poor fit]",–
CCOC(=O)Nc1ccc2c(c1)N(C(=O)CCN(CC)CC)c1ccccc1S2=O (stereo not given),"7.08 µM [falling, partial curve]","14.1 µM [rising, single point]"

# An excerpt of these results, bar-delimited:
SMILES | AC50 [1] | AC50 [2]
CCOc1cccc(C(=O)Nc2ccc3oc(Cc4ccc(Cl)cc4)nc3c2)c1 | 18.4 µM [falling, single point] | 25.9 µM [rising, partial curve, poor fit]
O=C(CSc1nnc(NC2CC2)s1)NN1C(=O)NC2(CCCCC2)C1=O | 16.4 µM [rising, single point] | –
Cc1ccc(Cn2ncc(Cl)c(Cl)c2=O)cc1 | 11.6 µM [falling, partial curve] | –
C=CCNc1nc2ccccc2nc1NS(=O)(=O)c1cccc(C)c1 | 15.8 µM [falling, partial curve, poor fit] | –

# Reference: PubChem BioAssay AID493014 (National Center for Advancing Translational Sciences (NCATS), 2011)
